Measured values reported in patent US12410157B2, “Compound useful as toll-like receptor 7 activation inhibitor” (TOYAMA PREFECTURAL UNIVERSITY, priority 2020, dated 2025).
“Also recorded” adds a separate entry of the source. At least one compound was matched to its structure with a doubt left.

How the values were obtained:
[1] = test system: systemic lupus erythematosus model mice (NZBWF1); test: Therapeutic effect in mouse model of spontaneous systemic lupus erythematosus; format: in vivo
Description: Systemic lupus erythematosus model mice (NZBWF1, 20 weeks old, female, n=55) were divided into saline-administered group (control, n=25), B2-24-4-5A·HCOOH-administered group (n=10), B2-24-4·HCOOH-administered group (n=5) and HCQ-administered group (n=15). The saline-administered group received saline (100 l) orally once a day, every day; the B2-24-4-5A·HCOOH-administered group received 10 mg/kg of B2-24-4-5A·HCOOH (100 l) orally once a day, every day; the B2-24-4·HCOOH-administered group received 10 mg/kg of B2-24-4·HCOOH (100 l) orally once a day, every day; the HCQ-administered group received 10 mg/kg of HCQ (100 l) orally once a day, every day. Fifteen weeks after the start of treatment, urine was collected from surviving mice in the saline-administered group (control, n=17), B2-24-4-5A·HCOOH-administered group (n=10), B2-24-4·HCOOH-administered group (n=5), and HCQ-administered group (n=12), and the mice were euthanized. After euthanasia, blood was drawn from the abdominal aorta of the mice, and the kidneys and spleen were removed.
Mice that died of natural causes during the 15-week period from the start of treatment were counted as deaths, and survival analysis was performed using the Kaplan Meier method. Blood collected from the abdominal aorta of each mouse, excluding the deceased cases, was centrifuged and serum was prepared. Determination of urea nitrogen and creatinine levels in serum was entrusted to Oriental Yeast Co. Albumin levels in urine were determined by ELISA (used kit: Levis Urinary Albumin-Mouse (S-type) (trade name) (Fujifilm Wako Shibayagi Corporation)). The removed kidneys were fixed with 4% (w/v) paraformaldehyde, and immunohistochemical staining was entrusted to Morpho Technology, Inc. In PAS-stained kidney tissue sections, histological findings of 100 glomeruli were evaluated. For increased cells and substrate in the mesangial area, endothelial cell swelling and cellular infiltration of the capillary lumen (intratubular proliferation), and glomeruli with inflammatory crescents (extratubular proliferation), each of the 100 glomeruli was assigned a grade from grade 0 to grade 2 according to severity and scored on a 6-point scale.
FIG. 10F is a photograph showing C3 deposition in the glomeruli of a mouse (#1) in the saline-administered group, a mouse (#10) in the B2-24-4-5A·HCOOH-administered group, a mouse (#4) in the B2-24-4·HCOOH-administered group and a mouse (#14) in the HCQ-administered group. […] In the renal tissue sections of a mouse (#1) in the saline-administered group, findings of active glomerulonephritis such as diffuse mesangial and intratubular proliferation were observed. […] The plots in FIGS. 10B, 10C, and 10D show the data for each individual, each bold line is the mean of the group data, and each error bar standard error. Scale bars in FIGS. 10E and 10F represent 100 μm. […]

TLR7 = molecular target: T1, TLR7 (Mus musculus, UniProt P58681); test: TLR7 inhibitory effect (IL-6 production) in mouse bone marrow-derived macrophages (BMDM); format: cell-based; set-up: Mouse BMDMs induced to differentiate by culture were spread into each well of a 96-well plate; endogenous in cells; host or cells: mouse bone marrow-derived macrophages (BMDM); mouse Flt-3 ligand-induced dendritic cells (FLDC)
T1 sequence (P58681 27-1050): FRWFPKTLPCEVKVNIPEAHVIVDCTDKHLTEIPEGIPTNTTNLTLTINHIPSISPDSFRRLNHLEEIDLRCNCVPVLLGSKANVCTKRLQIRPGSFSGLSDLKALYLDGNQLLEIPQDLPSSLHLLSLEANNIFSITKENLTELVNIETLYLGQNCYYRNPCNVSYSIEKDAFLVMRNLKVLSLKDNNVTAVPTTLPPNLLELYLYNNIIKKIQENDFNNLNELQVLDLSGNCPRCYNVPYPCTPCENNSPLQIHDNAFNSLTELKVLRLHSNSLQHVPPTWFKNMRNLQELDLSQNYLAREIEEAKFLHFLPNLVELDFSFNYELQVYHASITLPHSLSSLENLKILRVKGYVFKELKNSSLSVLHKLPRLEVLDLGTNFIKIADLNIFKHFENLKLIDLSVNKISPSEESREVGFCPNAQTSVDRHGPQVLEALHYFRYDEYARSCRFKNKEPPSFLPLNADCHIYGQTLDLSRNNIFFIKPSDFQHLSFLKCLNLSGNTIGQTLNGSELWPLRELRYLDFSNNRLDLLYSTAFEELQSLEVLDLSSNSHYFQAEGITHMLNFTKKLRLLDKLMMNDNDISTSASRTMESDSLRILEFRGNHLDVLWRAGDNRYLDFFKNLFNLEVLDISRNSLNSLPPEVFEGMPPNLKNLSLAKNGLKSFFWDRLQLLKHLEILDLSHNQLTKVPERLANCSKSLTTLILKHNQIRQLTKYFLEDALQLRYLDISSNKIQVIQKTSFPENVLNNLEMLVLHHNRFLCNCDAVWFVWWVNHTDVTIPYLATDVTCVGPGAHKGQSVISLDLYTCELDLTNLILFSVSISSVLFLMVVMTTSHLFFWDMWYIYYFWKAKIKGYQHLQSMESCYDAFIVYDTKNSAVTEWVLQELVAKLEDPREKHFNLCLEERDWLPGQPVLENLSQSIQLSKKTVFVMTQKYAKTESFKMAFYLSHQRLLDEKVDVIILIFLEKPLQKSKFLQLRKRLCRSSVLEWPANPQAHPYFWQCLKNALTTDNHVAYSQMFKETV

[2] = test system: mouse model of drug-induced systemic lupus erythematosus; test: Therapeutic effect in mouse model of drug-induced systemic lupus erythematosus (Beselna cream); format: in vivo, mice (BALB/c); settings: 5 mg/kg orally once a day, six weeks; vs saline group
[3] = test system: other TLR ligands (Pam2CSK4, Poly(I:C), Lipid A, CpG-B); test: TLR7 selectivity in mouse BMDM: IL-6 on stimulation with other TLR ligands; format: cell-based; settings: 1 nM, 10 nM or 100 nM
[4] = 10 mg/kg orally once a day, 15 weeks, vs saline or HCQ group
[5] = flow cytometry, vs saline-administered and HCQ-administered groups

Question: Which “Activity of lupus nephritis” value [1, 4] does the source give for `C=C(C)[C@@H]1CC[C@]2(COC(=O)C2)C[C@H]1c1ccc(CN2CCNCC2)cc1` [B2-24-4-5A·HCOOH] here?
Answer: Its value is “significant decrease in the activity of lupus nephritis”.

Question: What about the “C3 deposition in glomeruli” value [1, 4] of the same compound?
Answer: The value was “suppression of C3 deposition in glomeruli”.

Question: And the “IgG deposition in glomeruli” value [1, 4]?
Answer: The value was “suppression of IgG deposition in glomeruli”.

Question: And the Serum creatinine levels [1, 4]?
Answer: The Serum creatinine levels was “suppression of the increase in serum creatinine levels”.

Question: And the “Serum urea nitrogen levels” value [1, 4]?
Answer: Its value is “suppression of the increase in serum urea nitrogen levels”.

Question: And the Survival [1, 4]?
Answer: The Survival was “prolonged survival”.

Question: What about the Urine albumin levels [1, 4] of the same compound?
Answer: The Urine albumin levels was “suppression of urine albumin levels”.

Question: And the “Percentage of cells in the spleen: decreased populations” value [1, 5]?
Answer: Its value is “decrease in the percentage of neutrophils, erythroblasts, activated T cells, memory T cells and CD69 positive activated B cells”.

Question: And the “Percentage of cells in the spleen: increased populations” value [1, 5]?
Answer: The value was “increase in the percentage of plasmacytoid dendritic cells, helper T cells, cytotoxic T cells and naive T cells”.

Question: And the “Finding in renal tissue sections” value ([1]; mouse (#1) of the group, FIG. 10H)?
Answer: The value was “Only focal mesangial cell and substrate increase was observed”.

Question: What about the Tubulo-interstitial inflammation ([1]; per mouse) of the same compound?
Answer: The Tubulo-interstitial inflammation was “Not found; also recorded: Found”.

Question: And the “Glomerulonephritis and tubulointerstitial inflammation” value ([1]; summary of Table 8)?
Answer: Its value is “improvement not only in glomerulonephritis but also in tubulointerstitial inflammation”.

Question: And the Splenomegaly ([1]; vs saline-administered and HCQ-administered groups)?
Answer: The Splenomegaly was “suppression of splenomegaly”.

Question: What about the Spleen weight ([1]; vs saline-administered and HCQ-administered groups, FIG. 11A) of the same compound?
Answer: The Spleen weight was “significantly lower”.

Question: And the Spleen cell count ([1]; vs saline-administered and HCQ-administered groups, FIG. 11B)?
Answer: Its Spleen cell count is “significantly lower”.

Question: What about the “TLR7 inhibitory activity stronger than that of CB-7” value (TLR7; IL-6, FIG. 2) of the same compound?
Answer: Its value is “about 100 fold”.

Question: And the “IL-6 production induced by R848 stimulation” value (TLR7; pretreatment 30 minutes, R848 10 ng/mL, 24 hours, ELISA)?
Answer: The value was “attenuated”.

Question: And the “IgG deposition in glomeruli” value [2]?
Answer: Its value is “suppression of IgG deposition in glomeruli”.

Question: What about the “Percentage of activated T cells in splenic T cells” value [2] of the same compound?
Answer: The value was “less percentage of activated T cells in splenic T cells”.

Question: And the Splenomegaly [2]?
Answer: The Splenomegaly was “suppression of splenomegaly”.

Question: And the “Production of IL-6 by stimulation of other TLR ligands” value [3]?
Answer: The value was “but not by stimulation of other TLR ligands”.
